# In PubChem BioAssay AID445 (National Center for Advancing Translational Sciences (NCATS), 2006):
# Some of the results follow. Shown are side measurements of this screen, not its main read-out; they come without a call. Most of these compounds were active or inconclusive in the main read-out, so they are no random draw. Potencies come from curve fits of mixed quality, noted in brackets.
# Assay: IkB Signaling
# Settings: ABC-DLBCL IkBa-CBG/CBR dual luciferase ratio (green luciferase fused to IkBa over red control in OCI-Ly3 lymphoma cells), 4 h
# Procedure, shortened: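 Luminescence ratio of IκBα-fused green versus native red beetle luciferase in OCI-Ly3 cells, 4 h post-doxycycline with compound; red signal alone, scaled from basal (0%) to zero light (-100%), flagged nonspecific or cytotoxic effects.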
# [1] = measured here: control luc red channel unless noted
# [2] = measured here: IkB-luc green channel
# [3] = measured here: control luc red channel
smiles,measurement,setting,value
Cn1c(=O)c(=O)n(C)c2cc(S(=O)(=O)N3CCCC3C(=O)Nc3ccc(F)cc3)ccc21 (stereo unspecified),AC50,[1],"10 µM [falling, partial curve]"
CCOc1ccc(CNC(=O)Cn2ccc3cc(S(=O)(=O)N4CCCCC4)ccc32)cc1,AC50,[1],"12.6 µM [falling, partial curve]"
CCOc1ccc(CNc2cc(C)nc3nc(-c4cccc(C)c4)nn23)cc1OC,AC50,[1],"12.6 µM [falling, partial curve]"
Cc1cccc(NC(=O)c2ccc3oc(=O)c(S(=O)(=O)c4ccc(F)cc4)cc3c2)c1C,AC50,[1],"3.16 µM [falling, partial curve]"
CCOc1ccccc1Oc1ncnc2c1oc1ccccc12,AC50,[1],"3.98 µM [rising, partial curve]"
CCOc1ccccc1CNCc1c(C(=O)O)n(Cc2ccccc2)c2cc(OC)ccc12,AC50,[1],"15.8 µM [falling, single point]"
Cc1ccc(S(=O)(=O)Nc2ccc(-c3ccc(N4CCCCCC4)nn3)cc2)c(C)c1,AC50,[1],"6.31 µM [falling, partial curve]"
CCOC(=O)c1cc(C)n(CC2CCC(C(=O)Nc3cccc(C(C)=O)c3)CC2)c1C (stereo unspecified),AC50,[1],"7.94 µM [falling, partial curve]"
CCOc1ccccc1C1C(C(=O)Nc2ccccc2)=C(C)Nc2nc(-c3ccccc3)nn21 (stereo unspecified),AC50,[1],"15.8 µM [falling, partial curve]"
COc1ccccc1OCc1nc2ccccc2n1Cc1ccccc1,AC50,[1],"15.8 µM [falling, single point]"
CC(C)NC(=O)CSc1cn(CC(=O)N2CCCCCC2)c2ccccc12,AC50,[1],"39.8 µM [falling, single point]"
COc1ccc(CCCc2nnc(SCC(=O)Nc3cc(C)c(C)cc3Br)o2)cc1,AC50,[1],"5.01 µM [falling, partial curve]"
COc1ccc(N2CCN(C(=O)c3cnc(N4CCOCC4)c4ccccc34)CC2)cc1,AC50,[1],"2 µM [rising, partial curve]"
Cc1ccc(Cl)cc1NC(=O)CN1C(=O)c2ccccc2Sc2ncccc21,AC50,[1],"39.8 µM [falling, single point]"
COC(=O)c1c(NC(=O)CSc2nnc(-c3cccnc3)n2Cc2ccco2)sc(C)c1C,AC50,[1],"10 µM [falling, partial curve]"
COc1ccc(CCNC(=O)c2ccc3c(c2)nc2n3CCCCC2)cc1OC,AC50,[1],"0.126 µM [falling, full curve, poor fit]"
Cc1cccc(N2CCN(Cc3nnc(-c4cccc(Br)c4)o3)CC2)c1C,AC50,[1],"15.8 µM [falling, partial curve]"
Cc1csc(SCC(=O)Nc2ccccn2)n1,AC50,[1],"3.98 µM [falling, partial curve]"
Cc1cc(/C=N/n2cnnc2)c(C)n1-c1ccc(OCc2ccc(F)cc2)cc1,AC50,[1],"7.94 µM [falling, partial curve]"
COc1ccccc1NC(=O)Cn1c(=O)oc2cc(S(=O)(=O)NCc3ccccc3)ccc21,AC50,[1],"20 µM [falling, single point]"
Clc1ccc2nc(-c3ccc(N4CCOCC4)cc3)c(Nc3ccccc3)n2c1,AC50,[1],"15.8 µM [falling, single point]"
COc1ccc(N2CCN(CC(=O)Nc3nc4c(s3)CC(C)CC4)CC2)cc1 (stereo unspecified),AC50,[1],"15.8 µM [falling, partial curve]"
CCCc1ccc(OCc2ccc(C(=O)Nc3ccccc3C(=O)OC)o2)cc1,AC50,[1],"39.8 µM [falling, single point]"
CCc1ccc(CNC(=O)c2cccc(-n3c(C)nc4cccnc43)c2)cc1,AC50,[1],"15.8 µM [falling, single point]"
CCc1ccc(NC(=O)Cn2c(=O)n(-c3cccc(OC)c3)c(=O)c3c(C)c(C(=O)N(C)C)sc32)cc1,AC50,[1],"3.98 µM [rising, partial curve]"
CCc1ccc(-c2nnn(Cc3nc4ccccc4s3)n2)cc1,AC50,[1],"39.8 µM [falling, single point]"
CCCCN(CC)C(=O)c1ccc2c(c1)NC(=O)c1ccccc1S2,AC50,[1],"39.8 µM [falling, single point]"
CSc1nnc(NC(=O)c2cc(=O)c3cc(C)c(C)cc3o2)s1,AC50,[1],"2.51 µM [rising, partial curve]"
CC(C)Cc1nnc(NC(=O)CSc2nc(=O)cc(N)n2-c2ccccc2)s1,AC50,[1],"7.94 µM [falling, partial curve]"
COc1ccc(OC)c([C@@H]2Nc3ccc(C(=O)O)cc3[C@@H]3C=CC[C@@H]32)c1,AC50,[1],"7.94 µM [falling, partial curve]"
Cc1noc(/C=C/NCc2cccnc2)c1S(=O)(=O)N(C)CC(=O)N1CCc2ccccc21,AC50,[1],"7.94 µM [falling, partial curve]"
COc1ccccc1N1CCN(C(=O)CSc2ncccc2-c2nc3ccccc3[nH]2)CC1,AC50,[1],"0.501 µM [falling, full curve]"
CC(C)Cn1c(-c2ccccc2Cl)nc2ccccc21,AC50,[1],"10 µM [falling, partial curve]"
CCC(c1nnnn1Cc1ccco1)N1CCN(c2cc(Cl)ccc2C)CC1 (stereo unspecified),AC50,[1],"39.8 µM [falling, single point]"
O=C1c2ccccc2-c2cc([N+](=O)[O-])c([N+](=O)[O-])cc21,AC50,[2],"3.98 µM [rising, partial curve]"
same,AC50,[3],"3.98 µM [falling, single point]"
CCOc1ccc(-c2c(C)nn3c(C)c(C(=O)NCCN(C)C)cnc23)cc1OCC,AC50,[1],"31.6 µM [falling, single point]"
COc1ccccc1N=c1oc2cc(O)ccc2cc1C(=O)NCC1CCCO1 (stereo unspecified),AC50,[1],"2 µM [falling, full curve, poor fit]"
O=C(Cn1ncn2cccc2c1=O)NCc1cccc(Br)c1,AC50,[1],"39.8 µM [falling, single point]"
COc1ccc(N(CC(C)C)S(=O)(=O)c2nnc(NC(=O)c3ccco3)s2)cc1,AC50,[1],"7.94 µM [falling, full curve]"
COc1ccc(NC(=O)c2cc(-c3ccc(F)cc3)no2)cc1OC,AC50,[1],"20 µM [falling, single point]"
Cc1cccc(Cn2c(N3CCCCC3C)nc3c2c(=O)[nH]c(=O)n3C)c1 (stereo unspecified),AC50,[1],"20 µM [falling, single point]"
CCn1c(C)c(C)c2cc(C(=O)N3CCN(c4ccccc4)CC3)ccc21,AC50,[1],"20 µM [falling, single point]"
CN(C)c1ncnc2ccc(-c3cccc(NS(C)(=O)=O)c3)cc12,AC50,[1],"3.16 µM [rising, partial curve]"
Cc1n[nH]c(C)c1S(=O)(=O)N1CCCC(C(=O)N2CCN(c3ccc(Cl)cc3)CC2)C1 (stereo unspecified),AC50,[1],"15.8 µM [falling, partial curve]"
CCCCc1nn2c(=O)cc(COC(=O)c3ccc4c(c3)OCO4)nc2s1,AC50,[1],"0.794 µM [falling, full curve]"
O=C(CCCn1c(=O)[nH]c2ccc(Br)cc2c1=O)N1CCN(c2cccc(Cl)c2)CC1,AC50,[1],"20 µM [falling, partial curve]"
COc1ccccc1C(=O)NCC(c1ccc(N(C)C)cc1)N1CCc2ccccc21 (stereo unspecified),AC50,[1],"12.6 µM [falling, partial curve]"
Cc1noc(C)c1C(=O)OCC(=O)c1cc(C)n(Cc2ccccc2Cl)c1C,AC50,[1],"15.8 µM [falling, partial curve]"
CCOc1ccc(-c2cn3c(n2)sc2cc(C(=O)NCCCN4CCCCC4)ccc23)cc1,AC50,[1],"25.1 µM [falling, single point]"
COc1cc(NC(=O)c2ccc(-c3nc(CSc4ccccc4)c(C)o3)cc2)cc(OC)c1,AC50,[1],"2.51 µM [falling, full curve]"
CCSc1nnc(NC(=O)c2ccccc2)s1,AC50,[1],"2.51 µM [falling, full curve]"
COc1ccc2nc(N(Cc3cccnc3)C(C)=O)sc2c1,AC50,[1],"15.8 µM [rising, partial curve]"
O=C(Nc1sc2c(c1C(=O)O)CCC2)c1cccs1,AC50,[1],"3.98 µM [falling, partial curve]"
COC(=O)c1cc2oc(C)cc2n1Cc1ccc(Br)cc1F,AC50,[1],"15.8 µM [falling, partial curve]"
CCC(Oc1ccccc1-c1nnc(-c2ccccc2)o1)C(=O)Nc1ccc(C(C)=O)cc1 (stereo unspecified),AC50,[1],"1 µM [rising, full curve]"
COc1ccc(/C=N\n2nnc3ccccc32)cc1,AC50,[1],"3.98 µM [falling, full curve, poor fit]"
CCc1ccc(-n2c(=O)c3cccnc3n2CC(=O)NCc2ccccc2)cc1,AC50,[2],"5.01 µM [rising, single point]"
same,AC50,[3],"5.01 µM [rising, partial curve]"
Oc1c(C(c2ccccn2)N2CCOCC2)ccc2cccnc12 (stereo unspecified),AC50,[1],"15.8 µM [falling, partial curve]"
O=C(C1CCCN(S(=O)(=O)c2cccc3nonc23)C1)N1CCC(Cc2ccccc2)CC1 (stereo unspecified),AC50,[1],"15.8 µM [falling, partial curve]"
Cc1cc(NC(=O)c2cccc(S(=O)(=O)N3CC(c4ccccc4)CC3=O)c2)no1 (stereo unspecified),AC50,[1],"15.8 µM [falling, partial curve]"
Cc1ccc(C)c(NC(=O)n2ncc3cc(Cl)ccc32)c1,AC50,[1],"25.1 µM [falling, partial curve]"
COCCCNC(=O)Cn1cnc2sc(C)c(S(=O)(=O)N3CCC(C)CC3)c2c1=O,AC50,[1],"0.01 µM [falling, full curve]"
CCn1c(SCC(=O)O)nnc1-c1cc2c(C)nn(-c3ccccc3)c2s1,AC50,[1],"25.1 µM [falling, partial curve]"
Cc1ccc(CCNC(=O)c2ccc3nc(N4CCC(C)CC4)sc3c2)cc1,AC50,[1],"15.8 µM [falling, partial curve]"

# Given with tabs: entries from further up
smiles	measurement	setting	value
COc1ccc(NC(=O)c2cc(-c3ccc(F)cc3)no2)cc1OC	AC50	[1]	20 µM [falling, single point]
CCn1c(C)c(C)c2cc(C(=O)N3CCN(c4ccccc4)CC3)ccc21	AC50	[1]	20 µM [falling, single point]
Cc1n[nH]c(C)c1S(=O)(=O)N1CCCC(C(=O)N2CCN(c3ccc(Cl)cc3)CC2)C1 (stereo unspecified)	AC50	[1]	15.8 µM [falling, partial curve]
Cc1cc(NC(=O)c2cccc(S(=O)(=O)N3CC(c4ccccc4)CC3=O)c2)no1 (stereo unspecified)	AC50	[1]	15.8 µM [falling, partial curve]
